PubChem BioAssay AID1224830, NIAID, 2016
Shown is one part, drawn at random, of about 18,000 reagents. Of all reagents, about 2,900 (16%) were called active. 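Calls are made per well; low scores hint the gene aids the LPS response, high scores that it dampens it.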 Entries without a mark were called inactive. Repeated entries: four replicate wells of each siRNA pool.

Assay: 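Host factors that control LPS-induced TNF expression in human macrophages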 (primary screen)
Cells: human THP-1 monocytic leukaemia cells, TNF dual-luciferase reporter clone, PMA-differentiated to macrophage-like cells
Reagent: siRNA pool against human genes, 50 nM
Time to read-out: LPS for 4 h, given about 3 days after siRNA transfection
Conditions: bacterial LPS (TLR4 ligand), 10 ng/ml
Measurement: 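Ratio of firefly to renilla light, scaled to the plate median and expressed as a robust z-score per replicate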
Direction: TNF reporter robust z-score: higher = stronger TNF reporter response to LPS
Rule for the call: 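Each well counts as active if its z-score is over 2.8 or under -1.5; controls are left without a call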

What did the screen give for FHIP2B?
TNF reporter robust z-score: -0.1

Which result is listed for FHIP2B?
TNF reporter robust z-score: -0.68

What did the screen give for FHIP2B?
TNF reporter robust z-score: -0.03

Which result is listed for FHIP2B?
TNF reporter robust z-score: 1.02

For HDDC2, how do the results read?
TNF reporter robust z-score: -1.14

Which result is listed for HDDC2?
TNF reporter robust z-score: 0.37

With HDDC2, how do the results read?
TNF reporter robust z-score: 0.21

For HDDC2, what does the deposit list?
TNF reporter robust z-score: -0.25

Which result is listed for VEPH1?
TNF reporter robust z-score: -1.79 (active)

Which result is listed for VEPH1?
TNF reporter robust z-score: -1.22

Which result is listed for VEPH1?
TNF reporter robust z-score: -0.91

With VEPH1, what was measured?
TNF reporter robust z-score: -0.83

How did the screen score TAF4?
TNF reporter robust z-score: -1.52 (active)

What is on record for TAF4?
TNF reporter robust z-score: -0.74

Which result is listed for TAF4?
TNF reporter robust z-score: -0.45

For TAF4, what was measured?
TNF reporter robust z-score: -0.54

Active calls, of those listed so far:
VEPH1 — TNF reporter robust z-score: -1.79 (active)
TAF4 — TNF reporter robust z-score: -1.52 (active)

The list goes on.
For SOX30, how do the results read?
TNF reporter robust z-score: 1.31

What did the screen give for SOX30?
TNF reporter robust z-score: 1.73

What did the screen give for SOX30?
TNF reporter robust z-score: 1.44

For SLC4A4, what does the deposit list?
TNF reporter robust z-score: -0.96

Which result is listed for SLC4A4?
TNF reporter robust z-score: -0.72

What is on record for SLC4A4?
TNF reporter robust z-score: -1.05

How did the screen score SLC4A4?
TNF reporter robust z-score: -0.47

With ALKBH3, what does the deposit list?
TNF reporter robust z-score: 1.38

What did the screen give for ALKBH3?
TNF reporter robust z-score: 1

How did the screen score ALKBH3?
TNF reporter robust z-score: 1.51

With ALKBH3, how do the results read?
TNF reporter robust z-score: -0.16

What is on record for POLR2I?
TNF reporter robust z-score: -0.07

What did the screen give for POLR2I?
TNF reporter robust z-score: 0.14

What did the screen give for POLR2I?
TNF reporter robust z-score: -0.22

With POLR2I, what does the deposit list?
TNF reporter robust z-score: 0.42

What did the screen give for RHBDF2?
TNF reporter robust z-score: -0.5

How did the screen score RHBDF2?
TNF reporter robust z-score: -0.2

What is on record for RHBDF2?
TNF reporter robust z-score: -0.13

With RHBDF2, what does the deposit list?
TNF reporter robust z-score: -0.59
